A short description of this assay: qHTS Assay for Lipid Storage Modulators in Drosophila S3 Cells.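 On cell number change: cells counted by Cell Tracker Red CMTPX staining in the red channel.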 The conditions noted are these: BODIPY lipid droplet fluorescence, 18-24 h; for cell number change: measured here: cell count max response, cells fed with added oleic acid. In outline:
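Drosophila S3 cells loaded with oleic acid (400 uM, as added) and compounds at several concentrations; lipid droplets imaged by 488-nm laser-scanning cytometry, 500–530 nm intensity and object ratio to cell channel. Percent activity normalized to 20 uM Triacsin C.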
(Quantitative high-throughput screening tests each substance at several concentrations.)

[1] abbreviates: measured here: cell number channel AC50, cells fed with added oleic acid.
The mark [2] stands for this setting: measured here: lipid fluorescence (Fed channel) AC50, cells fed with added oleic acid.

From PubChem BioAssay AID2685 (National Center for Advancing Translational Sciences (NCATS), 2010) come the findings set out here.

The term AC50 denotes the concentration giving half of the maximal activity seen.

The other results are listed elsewhere or left out. Shown are side measurements of this screen, not its main read-out; they come without a call. Most of these compounds were active or inconclusive in the main read-out, so they are no random draw. The note in brackets gives the kind of curve behind each potency; many fits are weak.

Turning to `CC1=NN(c2ccccc2)C(=O)/C1=C\c1ccc(Br)s1`, the cell number change was -39.3%. The AC50 under setting [1] was 16.4 µM [falling, partial curve]. Also, under setting [2], the AC50 is 18.4 µM [falling, partial curve].

For `CC(=O)c1c(C)[nH]c(C(=O)/C(C#N)=C/c2cccc(C)c2)c1C`, the cell number change turned out to be 13.4%. The half-maximal activity concentration (AC50) under setting [2] was 6.51 µM [falling, single point].

`Cc1ccc(CSc2ccc3nnc(-c4cccnc4)n3n2)cc1`: the cell number change was -20%. Also, the AC50 under setting [2] was 0.0651 µM [rising, full curve, poor fit].

`COC(c1ccccc1)c1nnc(CCC(=O)NC2CCCCC2)o1` (centres undefined): the cell number change was -37.3%. Also, the AC50 under setting [1] is 7.31 µM [falling, partial curve, poor fit]. Moreover, the AC50 under setting [2] is 8.2 µM [falling, partial curve, poor fit].

For `CCOC(=O)Cc1csc(SCC(=O)NC(C)C23CC4CC(CC(C4)C2)C3)n1` (centres undefined), the AC50 under setting [2] is 29.1 µM [falling, single point].

For the compound `O=C(O)CN(c1ccccc1)S(=O)(=O)c1cc(C(F)(F)F)cc(C(F)(F)F)c1`, the cell number change is -29.3%. For the same compound, the half-maximal activity concentration (AC50) under setting [2] is 29.1 µM [falling, single point].

Consider `CN(CCC#N)C(=O)COC(=O)c1ccc2[nH]c3c(c2c1)CCCC3`, for which the cell number change was -56.1%. Moreover, under setting [1], the AC50 is 10.3 µM [falling, partial curve, poor fit]. For the same compound, the AC50 under setting [2] was 10.3 µM [falling, partial curve, poor fit].

For the compound `Cc1ccc(C(=O)CSc2nnc3c4ccccc4nc(C(C)(C)C)n23)cc1`, the cell number change was 28.6%. In addition, the AC50 under setting [2] was 2.59 µM [rising, partial curve, poor fit].

As to `COc1ccc(S(=O)(=O)N(C)CC(=O)NCCCn2ccnc2)cc1Cl`, the cell number change was -12.8%. In addition, the AC50 under setting [1] is 0.0651 µM [falling, full curve, poor fit].

As for `CC1CCc2c(c3ccccc3[nH]c2=O)O1` (centres undefined), the cell number change turned out to be 84.4%. Besides, the AC50 under setting [1] is 11.6 µM [rising, partial curve].

Turning to `CC(C)CC(=O)NC(=S)NNC(=O)c1ccc(NC(=O)C2CCCCC2)cc1`, the cell number change is -7.93%. Also, the concentration at half-maximal activity (AC50) under setting [2] was 29.1 µM [falling, single point].

In the case of `COc1cccc(CNc2nnnn2C)c1OC`, the cell number change stood at 11.7%.

Regarding `O=C(/C=C/c1ccc(-c2ccccc2)cc1)NCc1cccnc1`, the cell number change was -2.92%. Besides, the half-maximal activity concentration (AC50) under setting [2] is 0.082 µM [falling, full curve, poor fit].

Turning to `CCC1CCCCN1CCCNC(=O)c1ccc2nc(N3CCCCC3)sc2c1` (centres undefined), the cell number change turned out to be 5.03%. For the same compound, the AC50 under setting [1] was 0.82 µM [rising, full curve, poor fit].

On to `COC(=O)c1c(NC(=O)CN(c2ccc(C)c(C)c2)S(C)(=O)=O)sc2c1CCCC2`, for which the cell number change was -17.4%. Besides, the AC50 under setting [2] is 20.6 µM [falling, partial curve].

Take `Cc1cc(=O)[nH]c(N2CCN(C(c3ccccc3)c3ccccc3)CC2)n1`: the cell number change is -6.15%. Besides, the AC50 under setting [2] was 0.651 µM [falling, full curve, poor fit].

In the case of `CCOc1ccccc1CN1C(=O)C2(OCCO2)c2ccccc21`, the cell number change was 17.6%.

For `Fc1ccc(C2=CSC3=NCCN23)cc1`, the cell number change is -46.4%. The AC50 under setting [1] was 29.1 µM [falling, single point]. Also, the AC50 under setting [2] is 29.1 µM [falling, single point].

For `COCCNC(=O)c1onc(CSc2ccccc2F)c1C(=O)O`, the cell number change was -1.12%.

With `Cc1cccc(NC(=O)CSCC(=O)Nc2ccc(S(=O)(=O)N3CCCC3)cc2)c1`, the cell number change stood at 42.3%. In addition, the AC50 under setting [1] is 5.8 µM [rising, partial curve]. In addition, the AC50 under setting [2] was 2.06 µM [rising, partial curve].

Turning to `COC(=O)c1c(NC(=O)CN2C(=O)C(=O)N(C(C)C)C2=O)sc(C)c1C`, the cell number change was determined as 17.5%. Moreover, the AC50 under setting [2] is 11.6 µM [rising, single point].

On to `CC1CCN(S(=O)(=O)c2ccc(NC(=O)Cn3nnc(-c4ccccc4)n3)cc2)CC1`, for which the cell number change was -54.2%. Under setting [1], the AC50 is 23.1 µM [falling, single point]. For the same compound, under setting [2], the AC50 was 29.1 µM [falling, single point].

Take `COc1ccc(/C(O)=C(\C#N)c2nc3ccccc3n2C)cc1OC`: the cell number change stood at 69.8%. Moreover, the AC50 under setting [1] was 0.00461 µM [rising, full curve, poor fit]. The AC50 under setting [2] was 6.51 µM [rising, single point].

Consider `COc1ccc(NC(=S)N/N=C/c2ccc(F)cc2)cc1OC`, for which the AC50 under setting [2] is 0.651 µM [falling, single point].

Take `Cn1c(=O)oc2cc(S(=O)(=O)CCC(=O)N3CCN(c4ccccc4F)CC3)ccc21`: the cell number change was -4.28%. In addition, the AC50 under setting [2] is 7.31 µM [falling, single point].

As to `CC12C(=O)N(c3cccc4cccnc34)C(=O)C1C1C=CC2C1` (centres undefined), the cell number change stood at 26.8%. Under setting [2], the AC50 was 20.6 µM [rising, single point].

For `O=C(Nc1ccc(Cc2ccncc2)cc1)c1ccc(Cl)c([N+](=O)[O-])c1`, the cell number change was -11.4%.

On to `CCC(=O)N1CC23C=CC(CC2CC12CCCCC2)O3` (centres undefined), for which the cell number change is -12.2%.

Take `CO/N=C/C(=N\Nc1ccc(C)cc1)C(=O)c1ccc(OC)cc1`: the cell number change is 2%. Further, the AC50 under setting [1] was 1.64 µM [rising, partial curve]. Further, the concentration at half-maximal activity (AC50) under setting [2] was 0.731 µM [rising, full curve].

On to `O=C(NC(=S)Nc1ccc2oc(=O)ccc2c1)c1ccc(-c2cccc(Cl)c2Cl)o1`, for which, under setting [1], the AC50 is 6.51 µM [rising, single point].

For `Cc1cc(NCCCOC(C)C)n2c(nc3ccccc32)c1C#N`, the cell number change was -16.1%. The half-maximal activity concentration (AC50) under setting [2] is 0.82 µM [falling, full curve].

In the case of `CN(CC(=O)Nc1cccc(F)c1)C(=O)c1ccccc1Sc1ccccc1C#N`, the cell number change was -26.6%. The concentration at half-maximal activity (AC50) under setting [2] was 20.6 µM [falling, single point].

As for `O=C(CN(C(=O)CCC(=O)Nc1nccs1)c1ccc(F)cc1)NCc1ccc(F)cc1`, the cell number change was -14.1%.

On to `COc1cc2[nH]c3c(=O)n(CCN(C(C)C)C(C)C)cnc3c2cc1OC`, for which the cell number change turned out to be 1.88%. In addition, the AC50 under setting [2] was 0.00461 µM [falling, full curve, poor fit].

As for `CCC(=O)N1CCCc2ccccc21`, the cell number change is -10.5%. In addition, the AC50 under setting [2] was 23.1 µM [falling, single point].

With `CC(NC(=O)C1CCC1)c1ccc(Br)cc1` (centres undefined), the cell number change worked out at 7.3%. Besides, the AC50 under setting [2] was 0.259 µM [rising, partial curve, poor fit].

Regarding `CCOc1ccc(NC(=O)CSc2ccc(-c3cccnc3)nn2)cc1`, the cell number change amounted to 15%. Moreover, the AC50 under setting [2] is 5.17 µM [rising, full curve].

Consider `CCn1c(=O)c(C(=O)NNC(=O)Cc2ccccc2)c(O)c2ccccc21`, for which the concentration at half-maximal activity (AC50) under setting [2] was 29.1 µM [rising, single point].
